# Patent publication US20240201191A1, “CITRULLINATED PROTEINS AS BIOMARKERS AND THERAPY TARGETS FOR CANCER” (BOARD OF REGENTS, THE UNIVERSITY OF TEXAS SYSTEM, priority 2022, published 2024)
# Some compounds share one range, which may span the group rather than tell each member.
# Test system: MDA-MB-468 (TNBC) cells
# Assay: Cell surface HLA-bound peptidyl-citrullinome by mass spectrometry, MDA-MB-468
# Format: cell-based, human
# Settings: mild acid elution, LC-MS/MS, FDR=0.01; class by peptide length
row,Substance,Cell surface MHC binding citrullinated peptide identified in MDA-MB-468 (TNBC)
1,"LETADGESMNTEESNQGSTPSDQQQNKLR*SS (LETADGESMNTEESNQGSTPSDQQQNKLRSS; citrulline at R29; MOD_RES (29)..(29) Citrullinated Arginine) [SEQ ID NO: 100, PPPIR2P3 peptide, R29(Cit.)]",MHC-II (from 12 to 34 as MHC-IU binding peptides)
2,"LIR*KHTGSGILSMANAGPN (LIRKHTGSGILSMANAGPN; citrulline at R3; MOD_RES (3)..(3) Citrullinated Arginine) [SEQ ID NO: 96, PPIAL4E peptide, R3(Cit.)]",MHC-II (from 12 to 34 as MHC-IU binding peptides)
3,LIR*KHTGSGILSMANAGPNINGSQF [SEQ ID NO: 94],MHC-II (from 12 to 34 as MHC-IU binding peptides)
4,LIR*KHTGSGILSMANAGPNINGSQFF [SEQ ID NO: 93],MHC-II (from 12 to 34 as MHC-IU binding peptides)
5,"LLKNGER*IEKVEHSDLSFSKDWS (LLKNGERIEKVEHSDLSFSKDWS; citrulline at R7; MOD_RES (7)..(7) Citrullinated Arginine) [SEQ ID NO: 10, B2M peptide, R7(Cit.)]",MHC-II (from 12 to 34 as MHC-IU binding peptides)
6,"LLVTGAVDCSLRGWDLR*N (LLVTGAVDCSLRGWDLRN; citrulline at R17; MOD_RES (17)..(17) Citrullinated Arginine) [SEQ ID NO: 79, PEX7 peptide, R17(Cit.)]",MHC-II (from 12 to 34 as MHC-IU binding peptides)
7,"LMPNGPMR*ITSGPFEPDL (LMPNGPMRITSGPFEPDL; citrulline at R8; MOD_RES (8)..(8) Citrullinated Arginine) [SEQ ID NO: 75, PA2G4 peptide, R8(Cit.)]",MHC-II (from 12 to 34 as MHC-IU binding peptides)
8,"LPPDAEGPHGQFVSEKR*VE (LPPDAEGPHGQFVSEKRVE; citrulline at R17; MOD_RES (17)..(17) Citrullinated Arginine) [SEQ ID NO: 22, CBR1 peptide, R17(Cit.)]",MHC-II (from 12 to 34 as MHC-IU binding peptides)
9,"LQQIGR*ENPQLLQQISQHQEH (LQQIGRENPQLLQQISQHQEH; citrulline at R6; MOD_RES (6)..(6) Citrullinated Arginine) [SEQ ID NO: 108, RAD23B peptide, R6(Cit.)]",MHC-II (from 12 to 34 as MHC-IU binding peptides)
10,"LR*AQEAPGQAEPPAAAEVQGAGN (LRAQEAPGQAEPPAAAEVQGAGN; citrulline at R2; MOD_RES (2)..(2) Citrullinated Arginine) [SEQ ID NO: 120, SLC9A3R1 peptide, R2(Cit.)]",MHC-II (from 12 to 34 as MHC-IU binding peptides)
11,"LR*ATDGKKKISTVVSSKEVNKFQMA (LRATDGKKKISTVVSSKEVNKFQMA; citrulline at R2; MOD_RES (2)..(2) Citrullinated Arginine) [SEQ ID NO: 122, SRP14 peptide, R2(Cit.)]",MHC-II (from 12 to 34 as MHC-IU binding peptides)
12,"LR*IRSKKNEIMVAPDKDYFL (LRIRSKKNEIMVAPDKDYFL; citrulline at R2; MOD_RES (2)..(2) Citrullinated Arginine) [SEQ ID NO: 33, DYNLRB1 peptide, R2(Cit.)]",MHC-II (from 12 to 34 as MHC-IU binding peptides)
13,"MAR*LTWASHEKMHEGDEGPGHHHKPGLGEG (MARLTWASHEKMHEGDEGPGHHHKPGLGEG; citrulline at R3; MOD_RES (3)..(3) Citrullinated Arginine) [SEQ ID NO: 114, S100A9 peptide, R3(Cit.)]",MHC-II (from 12 to 34 as MHC-IU binding peptides)
14,"MAR*LTWASHEKMHEGDEGPGHHHKPGLGEGTP (MARLTWASHEKMHEGDEGPGHHHKPGLGEGTP; citrulline at R3; MOD_RES (3)..(3) Citrullinated Arginine) [SEQ ID NO: 115, S100A9 peptide, R3(Cit.)]",MHC-II (from 12 to 34 as MHC-IU binding peptides)
15,"MDAPVSGGVGAAR*SGNLTF (MDAPVSGGVGAARSGNLTF; citrulline at R13; MOD_RES (13)..(13) Citrullinated Arginine) [SEQ ID NO: 54, HIBADH peptide, R.13(Cit.)]",MHC-II (from 12 to 34 as MHC-IU binding peptides)
16,"MEDLDR*NKDQEVNF (MEDLDRNKDQEVNF; M1 oxidized; citrulline at R6; MOD_RES (1)..(1) Oxidized Methionine; MOD_RES (6)..(6) Citrullinated Arginine) [SEQ ID NO: 113, S100A6 peptide, M1(Oxi.); R6(Cit.)]",MHC-II (from 12 to 34 as MHC-IU binding peptides)
17,"MEDLDR*NKDQEVNFQE (MEDLDRNKDQEVNFQE; citrulline at R6; MOD_RES (6)..(6) Citrullinated Arginine) [SEQ ID NO: 112, S100A6 peptide, R6(Cit.)]",MHC-II (from 12 to 34 as MHC-IU binding peptides)
18,"MIREADVDQDGR*VNYE (MIREADVDQDGRVNYE; citrulline at R12; MOD_RES (12)..(12) Citrullinated Arginine) [SEQ ID NO: 18, CALML5 peptide, R12(Cit.)]",MHC-II (from 12 to 34 as MHC-IU binding peptides)
19,"MIREADVDQDGR*VNYEE (MIREADVDQDGRVNYEE; citrulline at R12; MOD_RES (12)..(12) Citrullinated Arginine) [SEQ ID NO: 16, CALML5 peptide, R12(Cit.)]",MHC-II (from 12 to 34 as MHC-IU binding peptides)
20,"MIREADVDQDGR*VNYEEF (MIREADVDQDGRVNYEEF; citrulline at R12; MOD_RES (12)..(12) Citrullinated Arginine) [SEQ ID NO: 17, CALML5 peptide, R.12(Cit.)]",MHC-II (from 12 to 34 as MHC-IU binding peptides)
21,"MLVSNR*VSWWGSTLAMLQRLKEQQFVIAGVL (MLVSNRVSWWGSTLAMLQRLKEQQFVIAGVL; oxidized M1; citrulline at R6; MOD_RES (1)..(1) Oxidized Methionine; MOD_RES (6)..(6) Citrullinated Arginine) [SEQ ID NO: 135, ZBED1 peptide, M1(Oxi.); R6(Cit.)]",MHC-II (from 12 to 34 as MHC-IU binding peptides)
22,"NNDNLLR*EGAAHAFAQY (NNDNLLREGAAHAFAQY; citrulline at R7; MOD_RES (7)..(7) Citrullinated Arginine) [SEQ ID NO: 21, CAPZA1 peptide, R7(Cit.)]",MHC-II (from 12 to 34 as MHC-IU binding peptides)
23,"NVAEVDKVTGR*FNGQFKTY (NVAEVDKVTGRFNGQFKTY; citrulline at R11; MOD_RES (11)..(11) Citrullinated Arginine) [SEQ ID NO: 109, RPS21 peptide, R11(Cit.)]",MHC-II (from 12 to 34 as MHC-IU binding peptides)
